Results deposited as PubChem BioAssay AID1259308 (NCATS, 2017)
Test: 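Candidate targets for better recombinant protein yield in mammalian cells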 (primary screen). System: human HEK293 embryonic kidney cells stably expressing firefly luciferase (HEK-CMV-Luc2-Hygro). Reagent: single siRNA against human genes, 0.8 pmol siRNA per well. Time to read-out: 72 h. Measurement: 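Luciferase light (ONE-Glo) measured on one replicate plate set and viability (CellTiter-Glo) on the other, scaled to a negative control siRNA, with robust z-scores and luciferase per cell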. Reading the numbers: total luciferase, z-score and total luciferase, % of control: higher = more reporter protein produced; luciferase per cell, z-score: higher = more reporter output per viable cell. Hit rule: 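Active when the median/MAD z-score for overall luciferase is greater than 3; a gene was taken forward for validation with new siRNAs if at least two of its three siRNAs passed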. Calls: active = raised luciferase; inactive = no rise.
The deposit covers about 59,000 reagents; below is an unselected part. Of all reagents, about 1,510 (2.6%) were called active. 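Calls use total luciferase alone and ignore viability, so some active siRNAs may act by altering cell number.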 Unmarked entries are inactive. Reagents against one gene are numbered here. Further read-outs or replicates are left out here.

| gene symbol | reagent no. | total luciferase, z-score | total luciferase, % of control | luciferase per cell, z-score |
| --- | --- | --- | --- | --- |
| OR11H4 (olfactory receptor family 11 subfamily H member 4) | 1 | 1.04 | 103 | 0.53 |
| OR11H4 (olfactory receptor family 11 subfamily H member 4) | 2 | -0.75 | 67 | -1.13 |
| OR11H4 (olfactory receptor family 11 subfamily H member 4) | 3 | 2.41 | 130 | 1.78 |
| LONRF3 (LON peptidase N-terminal domain and ring finger 3) | 1 | 1.46 | 111 | 0.541 |
| LONRF3 (LON peptidase N-terminal domain and ring finger 3) | 2 | -1.17 | 58.7 | -1.49 |
| LONRF3 (LON peptidase N-terminal domain and ring finger 3) | 3 | -0.073 | 80.4 | -0.695 |
| ZNF326 (zinc finger protein 326) | 1 | -0.174 | 78.4 | 0.457 |
| ZNF326 (zinc finger protein 326) | 2 | 0.00997 | 82.1 | 0.474 |
| ZNF326 (zinc finger protein 326) | 3 | -0.686 | 68.2 | -0.365 |
| STRN3 (striatin 3) | 1 | -0.687 | 68.2 | 0.297 |
| STRN3 (striatin 3) | 2 | -1.78 | 46.4 | -0.465 |
| STRN3 (striatin 3) | 3 | 0.298 | 87.8 | -0.149 |
| PGK2 (phosphoglycerate kinase 2) | 1 | -0.769 | 66.6 | 0.541 |
| PGK2 (phosphoglycerate kinase 2) | 2 | -0.377 | 74.4 | -1.23 |
| PGK2 (phosphoglycerate kinase 2) | 3 | 0.225 | 86.4 | -0.547 |
| GOLGA8EP (golgin A8 family member E, pseudogene) | 1 | -0.504 | 71.9 | -0.43 |
| GOLGA8EP (golgin A8 family member E, pseudogene) | 2 | 0.802 | 97.8 | 0.551 |
| GOLGA8EP (golgin A8 family member E, pseudogene) | 3 | -0.0338 | 81.2 | 0.584 |
| ZNF770 (zinc finger protein 770) | 1 | 0.738 | 96.6 | 0.75 |
| ZNF770 (zinc finger protein 770) | 2 | 0.152 | 84.9 | 0.077 |
| ZNF770 (zinc finger protein 770) | 3 | -0.776 | 66.5 | -0.275 |
| EYA4 (EYA transcriptional coactivator and phosphatase 4) | 1 | 0.378 | 89.4 | 0.144 |
| EYA4 (EYA transcriptional coactivator and phosphatase 4) | 2 | -0.719 | 67.6 | 0.404 |
| EYA4 (EYA transcriptional coactivator and phosphatase 4) | 3 | 0.744 | 96.7 | 0.945 |

Next part, starting with the last 8 of the part before.
| gene symbol | reagent no. | total luciferase, z-score | total luciferase, % of control | luciferase per cell, z-score |
| --- | --- | --- | --- | --- |
| GOLGA8EP (golgin A8 family member E, pseudogene) | 2 | 0.802 | 97.8 | 0.551 |
| GOLGA8EP (golgin A8 family member E, pseudogene) | 3 | -0.0338 | 81.2 | 0.584 |
| ZNF770 (zinc finger protein 770) | 1 | 0.738 | 96.6 | 0.75 |
| ZNF770 (zinc finger protein 770) | 2 | 0.152 | 84.9 | 0.077 |
| ZNF770 (zinc finger protein 770) | 3 | -0.776 | 66.5 | -0.275 |
| EYA4 (EYA transcriptional coactivator and phosphatase 4) | 1 | 0.378 | 89.4 | 0.144 |
| EYA4 (EYA transcriptional coactivator and phosphatase 4) | 2 | -0.719 | 67.6 | 0.404 |
| EYA4 (EYA transcriptional coactivator and phosphatase 4) | 3 | 0.744 | 96.7 | 0.945 |
| FZD3 (frizzled class receptor 3) | 1 | 0.503 | 91.9 | 0.628 |
| FZD3 (frizzled class receptor 3) | 2 | 1.33 | 108 | 0.25 |
| FZD3 (frizzled class receptor 3) | 3 | -0.794 | 66.1 | -0.865 |
| BUD31 (BUD31 spliceosome associated protein) | 1 | -2.21 | 38 | -1.22 |
| BUD31 (BUD31 spliceosome associated protein) | 2 | -0.54 | 71.1 | 0.761 |
| BUD31 (BUD31 spliceosome associated protein) | 3 | 0.403 | 89.9 | 1.51 |
| RPL18AP4 (ribosomal protein L18a pseudogene 4) | 1 | -0.541 | 71.1 | 1.57 |
| RPL18AP4 (ribosomal protein L18a pseudogene 4) | 2 | -0.85 | 65 | -0.393 |
| RPL18AP4 (ribosomal protein L18a pseudogene 4) | 3 | -0.37 | 74.5 | -0.215 |
| MRPL10 (mitochondrial ribosomal protein L10) | 1 | 2.5 | 132 | 1.28 |
| MRPL10 (mitochondrial ribosomal protein L10) | 2 | 1.43 | 110 | 1.51 |
| MRPL10 (mitochondrial ribosomal protein L10) | 3 | 0.533 | 92.5 | 0.436 |
| FBXW9 (F-box and WD repeat domain containing 9) | 1 | -1.08 | 60.5 | 0.474 |
| FBXW9 (F-box and WD repeat domain containing 9) | 2 | -0.215 | 77.6 | -0.464 |
| FBXW9 (F-box and WD repeat domain containing 9) | 3 | -1.25 | 57.1 | -0.752 |
| RALGAPA2 (Ral GTPase activating protein catalytic subunit alpha 2) | 1 | -0.0936 | 80 | -0.102 |
| RALGAPA2 (Ral GTPase activating protein catalytic subunit alpha 2) | 2 | -0.706 | 67.9 | -1.38 |
| RALGAPA2 (Ral GTPase activating protein catalytic subunit alpha 2) | 3 | -0.482 | 72.3 | -0.862 |
| PGK1 (phosphoglycerate kinase 1) | 1 | -0.334 | 75.2 | 0.206 |
| PGK1 (phosphoglycerate kinase 1) | 2 | -0.92 | 63.6 | -0.804 |
| PGK1 (phosphoglycerate kinase 1) | 3 | 1.32 | 108 | 0.167 |
| CTBP1 (C-terminal binding protein 1) | 1 | 3.24 (active) | 146 | 2.75 |
| CTBP1 (C-terminal binding protein 1) | 2 | 0.0289 | 82.5 | 0.106 |
| CTBP1 (C-terminal binding protein 1) | 3 | 2.59 | 133 | 1.72 |
| SHC3 (SHC adaptor protein 3) | 1 | -2.44 | 33.4 | -1.92 |
| SHC3 (SHC adaptor protein 3) | 2 | -0.439 | 73.2 | -0.32 |
| SHC3 (SHC adaptor protein 3) | 3 | 1.68 | 115 | 3.27 |
| CMKLR2 (chemerin chemokine-like receptor 2) | 1 | -1.21 | 57.8 | -1.29 |
| CMKLR2 (chemerin chemokine-like receptor 2) | 2 | -0.343 | 75.1 | -0.661 |
| CMKLR2 (chemerin chemokine-like receptor 2) | 3 | -0.916 | 63.7 | -1.48 |
| HMGN1P38 | 1 | -2.66 | 28.9 | -0.822 |
| HMGN1P38 | 2 | 5.63 (active) | 194 | 3.5 |
| HMGN1P38 | 3 | 0.77 | 97.2 | 0.874 |
